This is an account of results in article PMC11963761, “Structural basis for control of integrative and conjugative element excision and transfer by the oligomeric winged helix–turn–helix protein RdfS”.

Holding throughout (assay): SPR
A general note: In SPR one partner is held on a chip, and binding of the other changes the refractive index at the surface.

For data set [1], the system named is 6HRdfS1271 (Mesorhizobium ciceri WSM1271 (ICEMcSym1271)). Particulars: SPR: ReDCaT on Biacore T200, 1 uM protein, temperature not given, recombinant protein, protein details: N-terminal 6xHis, label: 5' biotin on S36.
Data set [2] deals with T1, 6H-RdfS (Mesorhizobium japonicum R7A (ICEMlSymR7A)) (UniProt Q7AL96).
T1 sequence (looked up): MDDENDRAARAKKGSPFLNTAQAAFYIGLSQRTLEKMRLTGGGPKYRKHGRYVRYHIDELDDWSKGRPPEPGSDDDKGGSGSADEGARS
Particulars: SPR: ReDCaT on Biacore T200, 1 uM protein, temperature not given, recombinant protein, residues 1-89, protein details: N-terminal 6xHis, label: 5' biotin on ….

Data set [3] deals with T2, RdfS (Mesorhizobium japonicum R7A (ICEMlSymR7A)) (UniProt Q7AL96).
T2 sequence (looked up): T1 sequence (looked up)
Particulars: SPR: ReDCaT on Biacore T200, 1 uM protein, temperature not given, recombinant protein, residues 1-89, protein details: N-terminal 6xHis removed after purification, label: 5' biotin on S36.

[4] abbreviates: 1 uM, nonspecific increase by tag.

Construct, isoform or probe ends are uncertain for at least one entry. For some assays here: A negative result means that nothing was seen under these conditions. At least one verdict was read from the data and is not stated in words by the source. For some assays here: Protein sequences can lack the tags named with them. For some assays here: A weaker result is weaker than the reference pair of the same experiment. For some assays here: Whether high values mean tight binding is not given here for every scale. Some results are limits rather than exact numbers.

As to “ACGATCTCCTCGCTACGAATTGGCAACTAGGATGTGGCTT / AAGCCACATCCTAGTTGCCAATTCGTAGCGAGGAGATCGTCCTACCCTACGTCCTCCTGC / GCAGGAGGACGTAGGGTAGG [PrdfM_5]”, the binding result in data set [1] (only very weak for any) was “binds more weakly”.

Turning to “ACTAGGATGTGGCTTTTGCGCTTCGATACCAACTCGCCTG / CAGGCGAGTTGGTATCGAAGCGCAAAAGCCACATCCTAGTCCTACCCTACGTCCTCCTGC / GCAGGAGGACGTAGGGTAGG [PrdfM_6]”, the binding result in data set [1] (only very weak for any) is reported as “binds more weakly”.

For the sequence “ACTAGTCAGGCCGGTTCCGCTTGACGAGGGTTTTCTTATT / AATAAGAAAACCCTCGTCAAGCGGAACCGGCCTGACTAGTCCTACCCTACGTCCTCCTGC / GCAGGAGGACGTAGGGTAGG [PrdfM_3]”, in data set [1] (only very weak for any), the binding result was “binds more weakly”.

In the case of “ATACCAACTCGCCTGGATTGCCAGGACCGAGGCAGCGTCC / GGACGCTGCCTCGGTCCTGGCAATCCAGGCGAGTTGGTATCCTACCCTACGTCCTCCTGC / GCAGGAGGACGTAGGGTAGG [PrdfM_7]”, in data set [1] (only very weak for any), the binding result is listed as “binds more weakly”.

For “CAAATTTGTTTCTCTTGGATTCCGCCTCTGGGCACCATCC / GGATGGTGCCCAGAGGCGGAATCCAAGAGAAACAAATTTGCCTACCCTACGTCCTCCTGC / GCAGGAGGACGTAGGGTAGG [attP_3]”, the binding result in data set [2] (setting [4]) is “binds more weakly”; in data set [3] (1 uM) it was “no binding”.

Take “CGCGCAAAGCGCGGATGGTCGGGTTTTGTGGAATTTCGGC / GCCGAAATTCCACAAAACCCGACCATCCGCGCTTTGCGCGCCTACCCTACGTCCTCCTGC / GCAGGAGGACGTAGGGTAGG [attP_7]”: the binding result is “binds more weakly” in data set [2] (setting [4]) and “no binding” in data set [3] (1 uM).

With “CTGCCGGAATGCACCCCGTTCACACGTTGCTGCCAATTTA / TAAATTGGCAGCAACGTGTGAACGGGGTGCATTCCGGCAGCCTACCCTACGTCCTCCTGC / GCAGGAGGACGTAGGGTAGG [PrdfM_1]”, the binding result in data set [1] (only very weak for any) is “binds more weakly”.

Turning to “GAATTTCGGCGCAGTTGGTCCAACGAGGCGGGGGGCTGGT / ACCAGCCCCCCGCCTCGTTGGACCAACTGCGCCGAAATTCCCTACCCTACGTCCTCCTGC / GCAGGAGGACGTAGGGTAGG [attP_8]”, the binding result in data set [1] (1 uM protein) is on record as “binds”; in data set [2] (1 uM protein, response as untagged) it was “binds”; in data set [3] (1 uM protein), “binds”.

For the sequence “GAATTTCGGCGCAGTTGGTCCATCGAGGCGGGGGGCTGGT / ACCAGCCCCCCGCCTCGATGGACCAACTGCGCCGAAATTCCCTACCCTACGTCCTCCTGC / GCAGGAGGACGTAGGGTAGG [attP_8_M23]”, the binding result in data set [3] (1 uM) is recorded as “binds”.

Turning to “GAATTTCGGCGCAGTTGGTCCTACGAGGCGGGGGGCTGGT / ACCAGCCCCCCGCCTCGTAGGACCAACTGCGCCGAAATTCCCTACCCTACGTCCTCCTGC / GCAGGAGGACGTAGGGTAGG [attP_8_M22]”, the binding result in data set [3] (1 uM) is reported as “binds”.

On to “GAATTTCGGCGCAGTTGGTCGAACGAGGCGGGGGGCTGGT / ACCAGCCCCCCGCCTCGTTCGACCAACTGCGCCGAAATTCCCTACCCTACGTCCTCCTGC / GCAGGAGGACGTAGGGTAGG [attP_8_M21]”, for which the binding result in data set [3] (1 uM) is recorded as “binds”.

In the case of “GAATTTCGGCGCAGTTGGTGCAACGAGGCGGGGGGCTGGT / ACCAGCCCCCCGCCTCGTTGCACCAACTGCGCCGAAATTCCCTACCCTACGTCCTCCTGC / GCAGGAGGACGTAGGGTAGG [attP_8_M20]”, the binding result in data set [3] (1 uM) is recorded as “binds”.

“GAATTTCGGCGCTGTTGGTCCAACGAGGCGGGGGGCTGGT / ACCAGCCCCCCGCCTCGTTGGACCAACAGCGCCGAAATTCCCTACCCTACGTCCTCCTGC / GCAGGAGGACGTAGGGTAGG [attP_8_M13]”: in data set [3] (1 uM), the binding result is “binds”.

For “GAATTTCGGCGGAGTTGGTCCAACGAGGCGGGGGGCTGGT / ACCAGCCCCCCGCCTCGTTGGACCAACTCCGCCGAAATTCCCTACCCTACGTCCTCCTGC / GCAGGAGGACGTAGGGTAGG [attP_8_M12]”, the binding result in data set [3] (1 uM) is given as “binds”.

As to “GAATTTCGGGGCAGTTGGTCCAACGAGGCGGGGGGCTGGT / ACCAGCCCCCCGCCTCGTTGGACCAACTGCCCCGAAATTCCCTACCCTACGTCCTCCTGC / GCAGGAGGACGTAGGGTAGG [attP_8_M10]”, the binding result in data set [3] (1 uM) was “binds”.

Take “GAATTTGGGCGCAGTTGGTCCAACGAGGCGGGGGGCTGGT / ACCAGCCCCCCGCCTCGTTGGACCAACTGCGCCCAAATTCCCTACCCTACGTCCTCCTGC / GCAGGAGGACGTAGGGTAGG [attP_8_M07]”: the binding result in data set [3] (1 uM) is listed as “binds”.

For the sequence “GACGACCTCGTTCGCCGATC / GATCGGCGAACGAGGTCGTCCCTACCCTACGTCCTCCTGC / GCAGGAGGACGTAGGGTAGG [PrdfS4_5 20-mer]”, in data set [3] (1 uM), the binding result is on record as “no binding”.

Regarding “GACTCTTCGCCCGTCCCCAC / GTGGGGACGGGCGAAGAGTCCCTACCCTACGTCCTCCTGC / GCAGGAGGACGTAGGGTAGG [PrdfS4_1 20-mer]”, the binding result in data set [3] (1 uM) is on record as “no binding”.

With “GACTCTTCGCCCGTCCCCACGACGACCTCGTTCGCCGATC / GATCGGCGAACGAGGTCGTCGTGGGGACGGGCGAAGAGTCCCTACCCTACGTCCTCCTGC / GCAGGAGGACGTAGGGTAGG [PrdfS_4]”, the binding result in data set [1] (1 uM protein) is “binds”. Further, the binding signal (% of attP 8 response) in data set [3] (1 uM protein, 52% of theoretical Rmax) worked out at 43.

For the sequence “GAGGGTTTTCTTATTTTAGCCCAACACGATCTCCTCGCTA / TAGCGAGGAGATCGTGTTGGGCTAAAATAAGAAAACCCTCCCTACCCTACGTCCTCCTGC / GCAGGAGGACGTAGGGTAGG [PrdfM_4]”, the binding result in data set [1] (only very weak for any) is reported as “binds more weakly”.

Turning to “GATTTTCGGCGCAGTTGGTCCAACGAGGCGGGGGGCTGGT / ACCAGCCCCCCGCCTCGTTGGACCAACTGCGCCGAAAATCCCTACCCTACGTCCTCCTGC / GCAGGAGGACGTAGGGTAGG [attP_8_M03]”, the binding result in data set [3] (1 uM) is “binds”.

With “GCAACTAGCTGAAATCCTTACTGATTTCGGCGCGCAAAGC / GCTTTGCGCGCCGAAATCAGTAAGGATTTCAGCTAGTTGCCCTACCCTACGTCCTCCTGC / GCAGGAGGACGTAGGGTAGG [attP_6]”, the binding result is recorded as “binds more weakly” in data set [2] (setting [4]) and “no binding” in data set [3] (1 uM).

Turning to “GCAGTTGGTCCAACGAGGCG / CGCCTCGTTGGACCAACTGCCCTACCCTACGTCCTCCTGC / GCAGGAGGACGTAGGGTAGG [attP8_3 20-mer]”, the binding signal (% of attP 8 Rmax) in data set [3] (1 uM) was less than 45.

On to “GGCACCATCCCCTCTTCTCCCGACAGTCTCTTTCGCCGAA / TTCGGCGAAAGAGACTGTCGGGAGAAGAGGGGATGGTGCCCCTACCCTACGTCCTCCTGC / GCAGGAGGACGTAGGGTAGG [attP_4]”, for which the figures for the binding result in data set [2] (setting [4]) and in data set [3] (1 uM) were “binds more weakly” and “no binding”, respectively.

Regarding “GGGGGCTGGTATTTTCGGTGGTATTGGAGATGCTGATGGT / ACCATCAGCATCTCCAATACCACCGAAAATACCAGCCCCCCCTACCCTACGTCCTCCTGC / GCAGGAGGACGTAGGGTAGG [attP_9]”, the binding result in data set [2] (setting [4]) is “binds more weakly”; in data set [3] (1 uM), “no binding”.

On to “GTATTTCGGCGCAGTTGGTCCAACGAGGCGGGGGGCTGGT / ACCAGCCCCCCGCCTCGTTGGACCAACTGCGCCGAAATACCCTACCCTACGTCCTCCTGC / GCAGGAGGACGTAGGGTAGG [attP_8_M02]”, for which the binding result in data set [3] (1 uM) is “binds”.

As for “GTTGCTGCCAATTTACGCCGAACGAACTAGTCAGGCCGGT / ACCGGCCTGACTAGTTCGTTCGGCGTAAATTGGCAGCAACCCTACCCTACGTCCTCCTGC / GCAGGAGGACGTAGGGTAGG [PrdfM_2]”, in data set [1] (only very weak for any), the binding result is given as “binds more weakly”.

Turning to “GTTGGTACTTCTGTTGGCACGCAGGGACGATGTTGGAGGC / GCCTCCAACATCGTCCCTGCGTGCCAACAGAAGTACCAACCCTACCCTACGTCCTCCTGC / GCAGGAGGACGTAGGGTAGG [attP_1]”, the binding result in data set [2] (setting [4]) is “binds more weakly”; in data set [3] (1 uM) it was “no binding”.

As for “TCGGCGCAGTTGGTCCAACG / CGTTGGACCAACTGCGCCGACCTACCCTACGTCCTCCTGC / GCAGGAGGACGTAGGGTAGG [attP8_2 20-mer]”, in data set [3] (1 uM), the binding signal (% of attP 8 Rmax) was less than 45.

For the sequence “TGGTCCAACGAGGCGGGGGG / CCCCCCGCCTCGTTGGACCACCTACCCTACGTCCTCCTGC / GCAGGAGGACGTAGGGTAGG [attP8_4 20-mer]”, the binding signal (% of attP 8 Rmax) in data set [3] (1 uM) is less than 45.

Take “TGTTGGAGGCCAAACATTTGTAAACAAAGTCAAATTTGTT / AACAAATTTGACTTTGTTTACAAATGTTTGGCCTCCAACACCTACCCTACGTCCTCCTGC / GCAGGAGGACGTAGGGTAGG [attP_2]”: the binding result is listed as “binds more weakly” in data set [2] (setting [4]) and “no binding” in data set [3] (1 uM, negative control).

Regarding “TTCGCCCGTCCCCACGACGA / TCGTCGTGGGGACGGGCGAACCTACCCTACGTCCTCCTGC / GCAGGAGGACGTAGGGTAGG [PrdfS4_2 20-mer]”, in data set [3] (1 uM), the binding result was “no binding”.

In the case of “TTTCGCCGAAGCCTCTACGCTTCTGTCTCGGCAACTAGCT / AGCTAGTTGCCGAGACAGAAGCGTAGAGGCTTCGGCGAAACCTACCCTACGTCCTCCTGC / GCAGGAGGACGTAGGGTAGG [attP_5]”, the binding result in data set [2] (setting [4]) was “binds more weakly”; in data set [3] (1 uM), “no binding”.
